No constants are given. Whether binding was seen depends on the method and setting. Binding seen in cells or lysates may run through a third protein. Binding calls can cover weak binding; strength is not graded here.
Target: T1, CIRP precipitated from IL-6R-overexpressing HEK 293T cells (UniProt Q14011)
T1 sequence: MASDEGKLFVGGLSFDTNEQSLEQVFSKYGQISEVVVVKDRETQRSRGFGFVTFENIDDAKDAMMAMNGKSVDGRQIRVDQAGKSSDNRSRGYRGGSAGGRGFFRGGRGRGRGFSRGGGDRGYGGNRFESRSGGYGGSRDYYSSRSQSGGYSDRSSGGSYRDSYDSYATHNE
Experiment: co-IP

Q: With “IL-6R overexpressed in HEK 293T cells (pcDNA3.1(+)-IL6r-3xFLAG-P2A-EGFP) (receptor)” as the substance, how does the binding read?
A: binds

— PMC13227277, “Targeting CIRP and IL-6R-mediated microglial inflammation to improve outcomes in intracerebral hemorrhage” (Journal of Advanced Research, 2025)
